# According to patent US12558386B2, “Methods and compositions to modulate antibiotic resistance and gastrointestinal microbiota” (OHIO STATE INNOVATION FOUNDATION, priority 2018, dated 2026):
# At least one structure is not confirmed: it was looked up by name or label, or the drawing left a doubt.
# Key:
# [1] = test system: Lactobacillus crispatus CG-12; experiment: MIC assessment (TREK Sensititre); format: cell-based; conditions: L. crispatus CG-12
# Procedure: (§1) Multiple commensal bacterial strains from chicken feces were recovered from Columbia blood Agar base (Becton, […] Dickinson and Company, Franklin Lakes, NJ) supplemented with 5% defibrinated sheep blood (Thermo Scientific™, Grand Island, NY), and maintained in Columbia broth (Becton Dickinson and Company, Franklin Lakes, NJ) and propagated by anaerobic growth at 37° C. The strains were subjected to antibiotic susceptibility assessment followed by strain identification.
# (§2) Minimum inhibition concertation (MIC) assessment. A TREK Sensititre diagnostic system (Thermo scientific, Oakwood Village, OH, USA) was used to assess the AR phenotype and MIC of isolated strains. Protocols to use this system can be found on www.trekds.com. Cation-adjusted Mueller Hinton Broth (Becton, Dickinson and Company, MD, USA) was used as basic medium.
# CG-12 = experiment: Screening of antibiotic susceptible commensal strains on antibiotic agar plates; format: cell-based, Lactobacillus crispatus; conditions: 16 μg/mL tetracycline, 100 μg/mL erythromycin, 32 μg/mL ampicillin, 152 μg/mL sulfamethoxazole with 8 μg/mL trimethoprim
# Procedure: as §1
# Screening of antibiotic susceptible commensal strains. Recovered commensal strain isolates (over 1000 colonies) were spotted on Columbia broth (Becton, […] Dickinson and Company, Franklin Lakes, NJ) agar plates containing each of the four antibiotics for rapid assessment of phenotypic resistance profiles. Screened antibiotics included 16 μg/mL tetracycline (Sigma-Aldrich, St. Louis, MO, USA), 100 μg/mL erythromycin (Fisher Scientific, Waltham, MA, USA), 32 μg/mL ampicillin (Sigma-Aldrich), and 152 μg/mL sulfamethoxazole (Sigma-Aldrich) with 8 μg/mL trimethoprim (Sigma-Aldrich).
# Three Amp^r E. coli = experiment: MIC assessment, summary for the three strains; format: cell-based, Escherichia coli; conditions: E. coli CA-1, CA-4 and CA-20 together
# Procedure: Bacterial strains. Multiple Amp^r strains from feces of broiler chickens without antibiotic treatment were recovered on Columbia blood Agar base (Becton, […] Dickinson and Company, Franklin Lakes, NJ) supplemented with 5% defibrinated sheep blood (Thermo Scientific™, Grand Island, NY). The strains were maintained in Columbia broth (Becton Dickinson and Company, Franklin Lakes, NJ), and propagated by aerobic growth at 37° C., and further subjected to strain identification and Minimum Inhibition Concentration (MIC) assessments.
# as §2
SMILES,"resistance phenotype from MIC, in words [1]",phenotypic susceptibility on antibiotic agar plates (CG-12),"resistance phenotype from MIC, in words (Three Amp^r E. coli)"
"C[C@H]1COc2c(N3CCN(C)CC3)c(F)cc3c(=O)c(C(=O)O)cn1c23 [LEVO, levofloxacin]",resistant,–,–
"CN(C)[C@@H]1C(O)=C(C(N)=O)C(=O)[C@@]2(O)C(O)=C3C(=O)c4c(O)cccc4[C@@](C)(O)[C@H]3C[C@@H]12 [TET, tetracycline]",–,susceptible,low MIC values
